These are yes or no findings as the source states them, for the method shown. Sequences can lack the tags named with a protein.
Target: hSV2C 455–579 peptide (released from GST-hSV2C 455–579 by thrombin) (human) (UniProt Q496J9)
Experiment: SEC; both purified

B1: hSV2C 455–579 peptide (released from GST-hSV2C 455–579 by thrombin) (domain or fragment, UniProt Q496J9 455-579)
chain: PDVIKPLQSDEYALLTRNVERDKYANFTINFTMENQIHTGMEYDNGRFIGVKFKSVTFKDSVFKSCTFEDVTSVNTYFKNCTFIDTVFDNTDFEPYKFIDSEFKNCSFFHNKTGCQITFDDDYSA
binding: no binding
